Some of the results follow. The main result of the screen is listed elsewhere. These columns were measured beside it and carry no call. The list favours compounds with an active or inconclusive main result. Potencies come from curve fits of mixed quality, noted in brackets.
Test: qHTS Assay for Modulators of Lamin A Splicing
Settings: HeLa LMNA splicing GFP/RFP minigene ratio, 48 h
In short: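 S3 HeLa cells stably expressing lamin A-EGFP splicing minigene plus DsRed2, 600 cells/well, 48 h compound exposure at 37C. Laser-scanning cytometry; analysed as GFP (500-530 nm)/RFP (575-640 nm) total intensity ratio; 0.5% DMSO vehicle.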

[1] = measured here: GFP splicing reporter channel
[2] = measured here: RFP viability control channel

For `CCOc1cccc(C2c3[nH]c4ccccc4c3CCN2C(=O)CCc2ccccc2)c1` (configuration not stated), the AC50 [1] was 0.562 µM [rising, single point] and the AC50 [2] was 0.562 µM [rising, full curve].

With `CCOc1ccc(CN2CCN(CC(O)Cn3c4ccccc4c4ccccc43)CC2)cc1` (configuration not stated) the AC50 [2] was 35.5 µM [rising, single point].

In the case of `CCN(CC)S(=O)(=O)c1ccc2nc(NC(=O)c3ccc(Br)o3)sc2c1`, the AC50 [1] is reported as 0.0251 µM [rising, full curve, poor fit].

For `Oc1ccccc1Oc1c(F)c(F)nc(N2CCCC2)c1F`, the AC50 [1] was 0.1 µM [rising, single point].

For `O=C(CCn1cnc(-c2ccccc2)c1-c1ccccc1)N/N=C/c1ccccc1O`, the AC50 [2] was 22.4 µM [rising, partial curve].

With `CC1(C)S[C@@H]2[C@H](NC(=O)[C@@H](N)c3ccc(O)cc3)C(=O)N2[C@H]1C(=O)O` the AC50 [1] was 0.00891 µM [falling, full curve, poor fit] and the AC50 [2] was 0.00891 µM [falling, full curve, poor fit].

For `C#CC(C)(CC)NC(=O)Cn1nnc(-c2ccc(S(C)(=O)=O)cc2)n1` (configuration not stated), the AC50 [1] was 12.6 µM [rising, partial curve, poor fit] and the AC50 [2] was 15.8 µM [rising, single point].

For `Cc1ccc(C(=O)Nc2ccc3c(c2)OCO3)cc1S(=O)(=O)N1CCCCC1`, the AC50 [2] was 31.6 µM [rising, single point].

For `CC(C)COc1ccc(S(=O)(=O)NNC(=O)c2cc3ccccc3o2)cc1`, the AC50 [2] was 31.6 µM [rising, single point].

For `O=S(=O)(c1ccc(Cl)c(Cl)c1)c1snnc1-c1ccccc1`, the AC50 [2] was 35.5 µM [falling, single point].

In the case of `COc1cccc(C(=O)Nc2nc(-c3ccc(S(=O)(=O)N4CCOCC4)cc3)cs2)c1`, the AC50 [2] is reported as 3.98 µM [rising, full curve, poor fit].

With `O=C1c2ccccc2C(=O)C12OC2c1ccc(Cl)cc1` (configuration not stated) the AC50 [2] was 31.6 µM [rising, single point].

With `CCC(=O)N1CCc2cc(CNS(=O)(=O)c3ccc(Cl)s3)ccc21` the AC50 [1] was 0.398 µM [rising, partial curve, poor fit].

With `CCn1c(C(=O)N2CCCC(C(=O)NCCc3ccc(C)cc3)C2)cc2sccc21` (configuration not stated) the AC50 [1] was 11.2 µM [rising, partial curve] and the AC50 [2] was 14.1 µM [rising, partial curve].

For `COc1ccc(Cc2nc(C(=O)Nc3ccccc3)cs2)cc1`, the AC50 [2] was 10 µM [rising, partial curve].

With `COC(=O)/C=C1/N/C(=N\c2nc(C)cc(C)n2)N(c2ccc(Cl)cc2)C1=O` the AC50 [2] was 11.2 µM [rising, partial curve].

In the case of `CCOc1ccc(NC(=O)C(C)Oc2ccccc2C(=O)Nc2ccc(C)c(Cl)c2)cc1` (configuration not stated), the AC50 [1] is reported as 25.1 µM [falling, single point] and the AC50 [2] is reported as 17.8 µM [falling, partial curve].

For `Cc1cc(C)cc(NC(=S)NC2CC3CCCC(C2)N3CC(C)C)c1` (configuration not stated), the AC50 [2] was 0.00794 µM [rising, full curve, poor fit].

For `CCOc1ccc(NC(=O)c2cc(CN3CCCC3)on2)cc1`, the AC50 [1] was 0.2 µM [falling, full curve, poor fit].

With `COc1ccc(/C=C/C(=O)Oc2cccc(/C=N/NC(=O)COc3c(C)cccc3C)c2)cc1` the AC50 [2] was 35.5 µM [falling, single point].

With `COc1cc(-c2nc3cnccn3c2Nc2ccc3c(c2)OCCO3)ccc1O` the AC50 [2] was 17.8 µM [rising, partial curve, poor fit].

For `CCC(Oc1ccccc1)C(=O)Nc1nnc(C(F)(F)F)s1` (configuration not stated), the AC50 [2] was 7.94 µM [rising, partial curve, poor fit].

For `CCn1c(NC(=O)c2ccc(F)cc2)c2ccccc2nc1=O`, the AC50 [2] was 25.1 µM [rising, single point].

In the case of `COc1ccc(N=Nc2cnc(C)nc2-c2ccccc2)cc1`, the AC50 [2] is reported as 11.2 µM [rising, single point].

With `COC(=O)C1=NN(c2ccccc2)C2(S1)S/C(=C\c1ccccc1)C(=O)N2c1ccccc1` (configuration not stated) the AC50 [2] was 35.5 µM [rising, single point].

For `COc1ccc2nc(SCC(=O)N3CCCCCC3)c(C#N)cc2c1`, the AC50 [2] was 35.5 µM [rising, single point].

In the case of `O=C(COc1c(Br)cc(Br)c2cccnc12)N1CCc2ccccc2C1`, the AC50 [2] is reported as 35.5 µM [rising, single point].

With `COc1ccc(-c2coc3c(O)c(OC)ccc3c2=O)cc1` the AC50 [2] was 35.5 µM [rising, single point].

In the case of `O=C(CCCc1nc2ccccc2s1)N1CCN(S(=O)(=O)c2cccs2)CC1`, the AC50 [1] is reported as 12.6 µM [rising, single point] and the AC50 [2] is reported as 14.1 µM [rising, single point].

With `O=C(Nc1nnc(S(=O)(=O)N2CCCC2)s1)c1ccccc1Cl` the AC50 [2] was 8.91 µM [rising, partial curve, poor fit].

With `O=C(Nc1cccnc1)Nc1cc(Cl)cc(Cl)c1` the AC50 [2] was 35.5 µM [rising, single point].

For `COc1cc(-c2nc3ccccn3c2/N=C/c2ccccc2)ccc1O`, the AC50 [1] was 2.82 µM [falling, partial curve] and the AC50 [2] was 25.1 µM [falling, single point].

In the case of `COc1cccc(-n2cnc3sc(C)c(C)c3c2=O)c1`, the AC50 [1] is reported as 35.5 µM [rising, single point] and the AC50 [2] is reported as 15.8 µM [rising, single point].

In the case of `COc1ccc(CNc2ccnc(-c3ccccc3Cl)n2)c(OC)c1`, the AC50 [1] is reported as 11.2 µM [falling, partial curve] and the AC50 [2] is reported as 10 µM [falling, partial curve].

With `CCOc1ccc(C(=O)NC2=NCCS2)cc1` the AC50 [2] was 0.0282 µM [falling, full curve, poor fit].

With `O=C(O)c1ccc(CN2CCOCC2)o1` the AC50 [1] was 0.112 µM [rising, full curve, poor fit].

In the case of `CCOc1ccc(-c2nnn(CC(=O)c3ccc4c(c3)OCCO4)n2)cc1`, the AC50 [1] is reported as 35.5 µM [rising, single point] and the AC50 [2] is reported as 35.5 µM [rising, single point].

Reference: PubChem BioAssay AID1487 (National Center for Advancing Translational Sciences (NCATS), 2009)
